Laboratory results reported in paper PMC10724205.
No constants are given. Whether binding was seen depends on the method and setting. Binding can be weak; no strength is given.

The chains behind the UniProt entries cited, without tags or fusion partners. Where a name states a change or a piece, a line headed by the entry shows the natural chain unless it says otherwise. Residues count along the entry.
UniProt Q12778: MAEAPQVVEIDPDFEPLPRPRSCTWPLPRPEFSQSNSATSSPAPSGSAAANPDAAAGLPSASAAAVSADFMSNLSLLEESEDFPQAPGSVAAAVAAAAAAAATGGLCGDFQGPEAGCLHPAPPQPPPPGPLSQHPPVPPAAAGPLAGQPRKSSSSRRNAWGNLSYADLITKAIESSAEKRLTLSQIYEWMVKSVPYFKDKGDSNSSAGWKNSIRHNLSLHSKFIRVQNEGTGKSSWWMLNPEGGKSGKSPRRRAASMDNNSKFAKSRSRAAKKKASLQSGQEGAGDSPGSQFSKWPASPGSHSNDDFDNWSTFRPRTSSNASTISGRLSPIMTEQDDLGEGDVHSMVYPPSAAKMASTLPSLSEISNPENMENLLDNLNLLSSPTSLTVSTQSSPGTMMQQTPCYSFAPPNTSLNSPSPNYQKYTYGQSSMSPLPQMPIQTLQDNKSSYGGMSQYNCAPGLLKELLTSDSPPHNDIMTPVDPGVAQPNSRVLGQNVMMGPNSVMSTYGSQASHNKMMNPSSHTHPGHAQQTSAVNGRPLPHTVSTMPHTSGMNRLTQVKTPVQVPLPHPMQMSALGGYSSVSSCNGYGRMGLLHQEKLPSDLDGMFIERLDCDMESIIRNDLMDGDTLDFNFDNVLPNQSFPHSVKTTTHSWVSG
UniProt Q09472, residues 566-645: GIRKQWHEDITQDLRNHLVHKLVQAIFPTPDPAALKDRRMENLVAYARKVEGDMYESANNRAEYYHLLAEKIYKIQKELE

Biological target: CFP-LacI-FOXO1 C-terminal AD fusion protein (UniProt Q12778)
Assay: LacO array recruitment assay; U2OS cells with the Lac operon array co-transfected with CFP-LacI-FOXO1 C-terminal AD and one mCherry-NLS-p300 domain fusion; fluorescent proteins imaged after 48 h

- binding: binds weakly
Substance: mCherry-NLS-p300 KIX domain fusion protein (from UniProt Q09472 566-645) (domain or fragment)
